We go through 119 sequences from PMC9833666 (Science Advances, 2023).

The nature of this data set: peptide made by a vendor. The conditions noted are these: whole synthesis, sequence written open; for purity (crude or final not stated): reversed-phase high-performance LC and MS quality control.

Plain letter strings leave the end groups untold.

With CRIKVDVNNRRRRVRLQVQC, under “one disulfide bridge”, the “purity (crude or final not stated)” value is 74.2%.
Take CVTIRVDNRGSRLKISVQVC: the “purity (crude or final not stated)” value (one disulfide bridge) stood at 71.2%.
On to CLRIRLNNGRRGLRVSVQVC, for which the “purity (crude or final not stated)” value (one disulfide bridge) is on record as 70.3%.
As for CVRVRVNNGRRRLKVSLQVC, the “purity (crude or final not stated)” value (one disulfide bridge) was determined as 84%.
As for CVTVRLNDRRSRLRITLEVC, under “one disulfide bridge”, the “purity (crude or final not stated)” value is 85.6%.
For the sequence CRVKINVNNRGRTLKLELEC, for the setting “one disulfide bridge”, the “purity (crude or final not stated)” value stood at 70.1%.
For the sequence CVTVRVNNRGGRLKITLQVC, the “purity (crude or final not stated)” value (one disulfide bridge) is reported as 78.2%.
Still for that read-out and setting: then CRVRINVNNRSGRLKLQVEC, with 87.3%; and CVTIRVNNRRSRVRISLQVC, with 74.4%.
As to CRIRVNINNRRRTLRLEVEC, for the setting “one disulfide bridge”, the “purity (crude or final not stated)” value is on record as 74.6%.
Take CRVKINVDNRSGRVKLELQC: the “purity (crude or final not stated)” value (one disulfide bridge) is given as 78.6%.
Same read-out and setting: then CRIRIDIDDRSRTLKLQLQC, with 97.9%; and CVRVRLNNRRRRVKISVEVC, with 71%; and CLTVRLDNRGSGLRITVEVC, with 88%.
Same read-out and setting: the value for CLTVRLNNRGGGVKISVEVC was 71.8%.
As to CVRIRVNNRRSGVKVSLQVC, where the note is “one disulfide bridge”, the “purity (crude or final not stated)” value is given as 70.5%.
For CVTVRVNNRRRRVRISVQVC, the “purity (crude or final not stated)” value (one disulfide bridge) is recorded as 78.2%.
CLTIRLDNGGRGVRISLQVC: for the setting “one disulfide bridge”, the “purity (crude or final not stated)” value stood at 70.3%.
For CVRVRLNNRRRGLKITLQVC, the “purity (crude or final not stated)” value (one disulfide bridge) is recorded as 97.7%.
CVTIRVDNGRGGVKVTVEVC: the outcome (one disulfide bridge) is “One SyRC peptide and three SyRA peptides could not be synthesized”.
Same read-out and setting: the value for CLTIRLDDRRSRVKVSVEVC was “One SyRC peptide and three SyRA peptides could not be synthesized”.
As for CLTIRVNNRRGRVRISVQVC, under “one disulfide bridge”, the “purity (crude or final not stated)” value was 82.3%.
In the case of CVRVRLNNRRRRVRVSVQVC, the “purity (crude or final not stated)” value (one disulfide bridge) turned out to be 85.5%.
On the same count and under the same terms, then CVTIRLNDGGSGLKISLQVC, with 92.9%.
CVRIRLNNRRRRVKVTLQVC: the “purity (crude or final not stated)” value (one disulfide bridge) was 75.1%.
As for CVRVRLNNGRRRVKVSLQVC, for the setting “one disulfide bridge”, the “purity (crude or final not stated)” value worked out at 96.7%.
For CRVRVNIDNRSRTLRLQLQC, the “purity (crude or final not stated)” value (one disulfide bridge) came out at 76.3%.
Regarding CVTVRLDNGRSGVRISVQVC, the outcome (one disulfide bridge) is given as “* was not synthesized”.
Turning to CRIKVDINNRSGRVKLQVQC, for the setting “one disulfide bridge”, the “purity (crude or final not stated)” value amounted to 98.6%.
On the same count and under the same terms, the value for CLRVRLNNRRRGLKISLQVC was 75.1%.
As to CVRVRLNNRRRGLKVTLQVC, for the setting “one disulfide bridge”, the “purity (crude or final not stated)” value was determined as 98.6%.
In the case of CLRIRLNNRRRGLRISLQVC, for the setting “one disulfide bridge”, the “purity (crude or final not stated)” value came to 75.7%.
As for CLTIRVDNRRSRVKITLEVC, the “purity (crude or final not stated)” value (one disulfide bridge) was found to be 74.2%.
With CLRIRVDNRGSGVKVTLEVC, where the note is “one disulfide bridge”, the “purity (crude or final not stated)” value came out at 98.2%.
CRVRININNGRRRVKLQLQC: for the setting “one disulfide bridge”, the “purity (crude or final not stated)” value amounted to 88.4%.
As to CVTVRLNNRRRGLRVSLQVC, the “purity (crude or final not stated)” value (one disulfide bridge) is 75.4%.
Turning to CRVRINVDNRGGTLKLQVQC, the “purity (crude or final not stated)” value (one disulfide bridge) is 82.7%.
Turning to CVRVRVDDRRGGLKISLQVC, the “purity (crude or final not stated)” value (one disulfide bridge) came out at 81.8%.
For the sequence CRIKVNIDDRSRRLRLELEC, the “purity (crude or final not stated)” value (one disulfide bridge) was 75.5%.
On to CLRIRLNNRRSRVRISVEVC, for which the “purity (crude or final not stated)” value (one disulfide bridge) is listed as 77%.
On the same count and under the same terms, then CLTVRLNNRRRGVKVSVQVC, with 75.9%; and CVTVRVNNRGRGLRISLQVC, with 83.5%; and CVRVRLNDGGSGVRISVQVC, with 95.6%.
With CRIKVDIDNGSGRLRLEVEC, the outcome (one disulfide bridge) was “One SyRC peptide and three SyRA peptides could not be synthesized”.
Take CLTVRLDNRGRGLKISVEVC: the “purity (crude or final not stated)” value (one disulfide bridge) is reported as 75.8%.
For CVRVRLDNRRSGLRISLQVC, the “purity (crude or final not stated)” value (one disulfide bridge) is listed as 88.2%.
Turning to CRVRINVNDGSGTVRLQVQC, under “one disulfide bridge”, the “purity (crude or final not stated)” value was 92.8%.
The same measure, in the same setting: the value for CVRIRLNNGGSGVKVTVEVC was 78.2%; that for CRVKVNINNGSRRLRLQVQC was 78.9%; that for CRIKVNINNRRRTVKLELEC was 78.4%.
As to CVRIRLNNGGRRVKVTLQVC, the “purity (crude or final not stated)” value (one disulfide bridge) turned out to be 88.8%.
For the sequence CVRIRLNNRRRRVRVSVQVC, the “purity (crude or final not stated)” value (one disulfide bridge) is 80.7%.
With CRIRININNRRGRLKLQVEC, the “purity (crude or final not stated)” value (one disulfide bridge) is listed as 93.3%.
Take CRVKVNVDDRGRRLKLELQC: the “purity (crude or final not stated)” value (one disulfide bridge) is 70.1%.
Turning to CRIKINVNDGSRRLKLQVQC, for the setting “one disulfide bridge”, the “purity (crude or final not stated)” value worked out at 77.5%.
CVRIRLNNRRRRVKVSLEVC: the “purity (crude or final not stated)” value (one disulfide bridge) came to 89.8%.
In the case of CVRVRVDNRGSRVKVTVQVC, the “purity (crude or final not stated)” value (one disulfide bridge) was found to be 81.6%.
Regarding CLRVRLNNRRGRVKVSLQVC, the “purity (crude or final not stated)” value (one disulfide bridge) amounted to 75.5%.
In the case of CVRIRVNNRRRRVKVSVQVC, the “purity (crude or final not stated)” value (one disulfide bridge) is on record as 85.8%.
In the case of CRVRINVDDRRGRLKLQVEC, the “purity (crude or final not stated)” value (one disulfide bridge) came out at 86.5%.
For the sequence CLTVRVNNRRSGVRVSVQVC, the “purity (crude or final not stated)” value (one disulfide bridge) is 92.8%.
Take CRIRIDVNNRSGTLKLQVQC: the “purity (crude or final not stated)” value (one disulfide bridge) is listed as 79.9%.
Take CRIKVNVNNRGRRLRLEVQC: the “purity (crude or final not stated)” value (one disulfide bridge) came to 70.6%.
In the case of CRVKINIDNGSRRVRLEVEC, the “purity (crude or final not stated)” value (one disulfide bridge) amounted to 70.7%.
With CLTIRVDNRGSRVRITLEVC, under “one disulfide bridge”, the “purity (crude or final not stated)” value was found to be 72%.
Turning to CVRVRVNNRGGRLKISVQVC, the “purity (crude or final not stated)” value (one disulfide bridge) worked out at 83.4%.
With CLRVRLNNRRRGVKVSVQVC, the “purity (crude or final not stated)” value (one disulfide bridge) was 80.7%.
Consider CRIRINVNNGSGRVRLELEC, for which the “purity (crude or final not stated)” value (one disulfide bridge) was 76.5%.
Consider CLRVRLDDRRGRLRISLQVC, for which the “purity (crude or final not stated)” value (one disulfide bridge) turned out to be 77.5%.
Turning to CRIRINIDNRSGTVRLEVQC, the “purity (crude or final not stated)” value (one disulfide bridge) is recorded as 70.2%.
On the same count and under the same terms, then CRIRIDIDNRGRTVRLEVQC, with 80.7%; and CLRVRLNNGGRRVKVSVQVC, with 73.3%; and CVRIRLNNRRRGLKISLQVC, with 83%.
In the case of CLRVRLNNRRRGLKVSVQVC, the “purity (crude or final not stated)” value (one disulfide bridge) came to 87.8%.
For the sequence CRVRINIDNRSGRVKLEVQC, the “purity (crude or final not stated)” value (one disulfide bridge) was 86.5%.
Still for that read-out and setting: then CLRVRLNNRRRGLRISLQVC, with 81.6%; and CVRVRLNNRRRGLKISLQVC, with 81.5%; and CVRVRLNNRRRGLRVSLQVC, with 96.6%.
Turning to CLRIRVNNRGSGLRISVEVC, under “one disulfide bridge”, the “purity (crude or final not stated)” value turned out to be 91%.
Turning to GSKKPVPIIYCNRRTGKCQRM, the “purity (crude or final not stated)” value (one disulfide bridge) worked out at 82.5%.
The same measure, in the same setting: the value for CRIRIDVNNGSGRLKLQLEC was 83.9%; that for CRIRINVNDRGGTVRLEVEC was 74.6%; that for CLRIRVNNGGSRVRISLEVC was 79.7%.
Still for that read-out and setting: the value for CLRIRLNDRRRGLRVSLQVC was 70.2%; that for CRIRINVDNGGGTVRLQVEC was 70.6%.
For CLRVRVNNRRSGVRVTLEVC, the “purity (crude or final not stated)” value (one disulfide bridge) came to 80.7%.
Regarding CRVKINIDNRSRRVKLQVQC, the “purity (crude or final not stated)” value (one disulfide bridge) amounted to 74.4%.
Take CVRVRLNNRRRGVKISLQVC: the “purity (crude or final not stated)” value (one disulfide bridge) came to 70.4%.
As to CVTIRLDDRRRGLRVTVQVC, the “purity (crude or final not stated)” value (one disulfide bridge) is recorded as 71.6%.
On to CLRIRLNNRGRGVKVSVEVC, for which, under “one disulfide bridge”, the “purity (crude or final not stated)” value worked out at 96.6%.
On to CRIKIDVDNRRRTLKLQLEC, for which the “purity (crude or final not stated)” value (one disulfide bridge) came out at 77.1%.
CVRVRLNNRRRRLKVSLEVC: the “purity (crude or final not stated)” value (one disulfide bridge) worked out at 97%.
With CLRVRLNNGRRRLKVSLQVC, the “purity (crude or final not stated)” value (one disulfide bridge) was 85.4%.
Turning to CLTVRVNNRGSGVKVSLEVC, the “purity (crude or final not stated)” value (one disulfide bridge) is listed as 89.8%.
In the case of CLTVRVDNRGSRLKVTVEVC, the “purity (crude or final not stated)” value (one disulfide bridge) turned out to be 79.8%.
The same measure, in the same setting: then CRVRVNINNRGGTVKLQLQC, with 75.2%; and CLRVRVDNGGSRLKITLEVC, with 77.5%.
As for CRIRVNVNDGSGRVRLQVQC, the “purity (crude or final not stated)” value (one disulfide bridge) was found to be 76.3%.
CVRVRLNNRRRRLKISLEVC: the “purity (crude or final not stated)” value (one disulfide bridge) was 76.9%.
Still for that read-out and setting: then CVTVRVNNRGSRLKVSVEVC, with 74%.
Regarding CVRVRLNNGRRRLKVSLQVC, the “purity (crude or final not stated)” value (one disulfide bridge) is 81.3%.
Turning to CLRIRLNNRRRGLKVSLQVC, the “purity (crude or final not stated)” value (one disulfide bridge) is 83.5%.
As for CVRIRLNNRRRGLKVSLQVC, where the note is “one disulfide bridge”, the “purity (crude or final not stated)” value was determined as 96%.
Regarding RGGRLCYCRRRFCVCVGR, the “purity (crude or final not stated)” value (several disulfide bridges) was found to be 79.9%.
With CRVRININNRSRTLKLELEC, the “purity (crude or final not stated)” value (one disulfide bridge) was determined as 80.5%.
As for CRVRVNINNGSGRVKLELEC, the “purity (crude or final not stated)” value (one disulfide bridge) is 97.6%.
Turning to CVTIRVDNRGSRVRVTLEVC, the “purity (crude or final not stated)” value (one disulfide bridge) is reported as 83.8%.
In the case of CLRVRVNDRGSGVKITVEVC, for the setting “one disulfide bridge”, the “purity (crude or final not stated)” value is reported as 70.3%.
As to CVRVRLNNRGGGLRITLQVC, the “purity (crude or final not stated)” value (one disulfide bridge) stood at 93%.
Same read-out and setting: then CRVRININNGGRRVKLEVQC, with 82.6%.
With CRIKVNINNGRRRVKLQLQC, the “purity (crude or final not stated)” value (one disulfide bridge) is 87.1%.
As to CLRVRLNNRRGRLRVSLQVC, under “one disulfide bridge”, the “purity (crude or final not stated)” value is given as 71.9%.
On to CVTIRLNDRRRGVKISVEVC, for which the “purity (crude or final not stated)” value (one disulfide bridge) is 96.9%.
As to CVRVRVNNRGGGVRITLQVC, where the note is “one disulfide bridge”, the “purity (crude or final not stated)” value is reported as 76.6%.
Still for that read-out and setting: then CVTVRVNNRGGRLKVSVEVC, with 99.2%.
Take CVRVRLDNRGGGLRISLEVC: the “purity (crude or final not stated)” value (one disulfide bridge) was 84.8%.
CRIRINVNNRGRTLKLEVQC: the “purity (crude or final not stated)” value (one disulfide bridge) turned out to be 70.5%.
As for CRVRIDIDNRSRTLKLEVQC, the “purity (crude or final not stated)” value (one disulfide bridge) is recorded as 82.5%.
CLRIRVNNRRGGVRITVQVC: the “purity (crude or final not stated)” value (one disulfide bridge) worked out at 78.8%.
